Measurements as given in patent US10526389B2, “Peptides and combinations of peptides for use in immunotherapy against lung cancer, including NSCLC and other cancers” (Immatics Biotechnologies GmbH, priority 2015, dated 2020).
For some of these results: For expression read-outs the peptide stands for its source gene, whose mRNA was measured; the gene is not named for every peptide.

How the values were obtained:
NSCLC tumor samples = assay: Absolute quantitation of peptide copies per cell (nanoLC-MS/MS); set-up: species or system human
[1] = test system: HLA-A*24-positive lung cancer (NSCLC) samples; assay: Relative LC-MS quantitation of HLA-A*24 peptide presentation on tumors vs normal tissues; set-up: species or system human; key: very highly over-presented on tumors compared to a panel of normal tissues (+++); highly over-presented on tumors compared to a panel of normal (healthy) tissues (++); over-presented on tumors compared to a panel of normal tissues (+); conditions: HLA-A*24 peptides; tumors compared to a panel of normal tissues
[2] = test system: HLA-A*02-positive lung cancer (NSCLC) samples; assay: Relative LC-MS quantitation of HLA-A*02 peptide presentation on tumors vs normal tissues; set-up: species or system human; key to Peptide Presentation (presentation score): very highly over-presented on tumors compared to a panel of normal tissues (+++); highly over-presented on tumors compared to a panel of normal (healthy) tissues (++); over-presented on tumors compared to a panel of normal tissues (+); conditions: HLA-A*02 peptides; tumors compared to a panel of normal tissues
[3] = test system: source genes of the peptides (mRNA) in tumors vs normal tissues; assay: Expression profiling of genes encoding the peptides (Affymetrix microarray); set-up: species or system human; key: very highly over-expressed in tumors compared to a panel of normal tissues (+++); highly over-expressed in tumors compared to a panel of normal tissues (++); over-expressed in tumors compared to a panel of normal tissues (+); conditions: HLA-A*24 peptides; tumors compared to a panel of normal tissues
[4] = test system: HLA-A*24-positive lung cancer (NSCLC) samples; assay: Relative LC-MS quantitation of HLA-A*24 peptide presentation on tumors vs normal tissues; set-up: species or system human; conditions: for Other relevant organs/diseases (additional tumor types on which the peptide was found): over-presented on >5% of measured tumor samples, or presented on >5% with ratio of geometric means tumor vs normal >3
[5] = test system: HLA-A*24-positive lung cancer (NSCLC) samples; assay: as above; set-up: species or system human; key: very highly over-presented on tumors compared to a panel of normal tissues (+++); highly over-presented on tumors compared to a panel of normal tissues (++); over-presented on tumors compared to a panel of normal tissues (+); conditions: HLA-A*24 peptides; tumors compared to a panel of normal tissues

Substance	Copies per cell (median) (NSCLC tumor samples)	Peptide Presentation (presentation score) [1]	further results
RYLEKFYGL (listed as Homo sapiens) [SEQ ID No. 26]	+++ (>=1,000 +++)	+++	
TYNPEIYVI (listed as Homo sapiens) [SEQ ID No. 35]	++ (>=100 = ++)	+++	
DONSON-001 (VLYPHEPTAV; listed as Homo sapiens)	+ (<100 = +)		
COL6A3-012 (RYPPPVREF; listed as Homo sapiens)	+++ (>=1,000 +++)	+++	
BNC1-001 (VLFPNLKTV)	+ (<100 = +)		
NYPKSIHSF (listed as Homo sapiens) [SEQ ID No. 24]	+++ (>=1,000 +++)	+++	
LYQILQGIVF (listed as Homo sapiens) [SEQ ID No. 161]	+++ (>=1,000 +++)	+++	
RAD54B-001 (SLYKGLLSV; listed as Homo sapiens)	+ (<100 = +)		
YVYQNNIYL (listed as Homo sapiens) [SEQ ID No. 115]	++ (>=100 = ++)		Peptide Presentation (presentation score) [2]: +
YYTKGFALLNF (listed as Homo sapiens) [SEQ ID No. 29]	++ (>=100 = ++)	+++	
ADAM8-001 (KLLTEVHAA; listed as Homo sapiens)	+ (<100 = +)		
COL6A3-001 (SYLQAANAL; listed as Homo sapiens)	++++ (>=10,000 = ++++)	+++	
VYTSWQIPQKF (listed as Homo sapiens) [SEQ ID No. 23]	+++ (>=1,000 +++)	+++	
COL6A3-003 (NLLDLDYEL; listed as Homo sapiens)	+++ (>=1,000 +++)		
WNT5A-001 (AMSSKFFLV; listed as Homo sapiens)	++ (>=100 = ++)		
MXRA5-002 (GLTDNIHLV; listed as Homo sapiens)	+ (<100 = +)		
26: peptide found in MMP12 (gene looked up) (RYLEKFYGL; listed as Homo sapiens) [compound 26]			Gene Expression (expression score of source gene) [3]: +++; Other relevant organs/diseases (additional tumor types on which the peptide was found) ([4]; HLA-A*24 peptides): Stomach, Liver
KDM6B-001 (RYGGSFAEL; listed as Homo sapiens)			Peptide Presentation (presentation score) [5]: ++
OLFML2B-001 (YYGNTLVEF; listed as Homo sapiens)	+++ (>=1,000 +++)	+++	
NLIEKSIYL (listed as Homo sapiens) [SEQ ID No. 141]	++ (>=100 = ++)		
VFLNRAKAVFF (listed as Homo sapiens) [SEQ ID No. 38]	+++ (>=1,000 +++)	+++	

Substance	Copies per cell (median) (NSCLC tumor samples)	Peptide Presentation (presentation score) [1]	further results
TYKYVDINTF (listed as Homo sapiens) [SEQ ID No. 159]	++ (>=100 = ++)	+++	
KIQEILTQV (listed as Homo sapiens) [SEQ ID No. 120]	++ (>=100 = ++)		Peptide Presentation (presentation score) [2]: +++
RLLDSVSRL (listed as Homo sapiens) [SEQ ID No. 121]	++ (>=100 = ++)		Peptide Presentation (presentation score) [2]: +
47: peptide found in ENO1 (gene looked up) (RYISPDQLADL; listed as Homo sapiens) [compound 47]			Gene Expression (expression score of source gene) [3]: +; Additional Entities (additional tumor types showing over-presentation) ([4]; HLA-A*24 peptides, amendment of Table 10): HCC; Other relevant organs/diseases (additional tumor types on which the peptide was found) ([4]; HLA-A*24 peptides): Kidney
KYLEKYYNL (listed as Homo sapiens) [SEQ ID No. 30]	+++ (>=1,000 +++)	+++	
MXRA5-001 (TLSSIKVEV; listed as Homo sapiens)	++ (>=100 = ++)		
159: peptide found in MMP12 (gene looked up) (TYKYVDINTF; listed as Homo sapiens) [compound 159]			Gene Expression (expression score of source gene) [3]: +++; Other relevant organs/diseases (additional tumor types on which the peptide was found) ([4]; HLA-A*24 peptides): Stomach
FLFDGSANL (listed as Homo sapiens) [SEQ ID No. 13]	+++ (>=1,000 +++)		Peptide Presentation (presentation score) [2]: +++
38: peptide found in GPNMB (gene looked up) (VFLNRAKAVFF; listed as Homo sapiens) [compound 38]			Gene Expression (expression score of source gene) [3]: +; Other relevant organs/diseases (additional tumor types on which the peptide was found) ([4]; HLA-A*24 peptides): Liver
RFMDGHITF (listed as Homo sapiens) [SEQ ID No. 25]	++++ (>=10,000 = ++++)	+++	
BUB1B-001: peptide found in BUB1B (gene looked up) (KIVDFSYSV)	+ (<100 = +)		
COL12A1-002 (FLVDGSWSV; listed as Homo sapiens)	++ (>=100 = ++)		
161: peptide found in CDK1 (gene looked up) (LYQILQGIVF; listed as Homo sapiens) [compound 161]			Gene Expression (expression score of source gene) [3]: +; Other relevant organs/diseases (additional tumor types on which the peptide was found) ([4]; HLA-A*24 peptides): Kidney, Stomach, Liver
KLDETNNTL (listed as Homo sapiens) [SEQ ID No. 158]	++ (>=100 = ++)		
MUC16-001 (TYSEKTTLF; listed as Homo sapiens)	++ (>=100 = ++)	+++	
TTC13-001 (RYLEYFEKI; listed as Homo sapiens)	+++ (>=1,000 +++)	+++	
FKBP10-002 (TYIGQGYII; listed as Homo sapiens)	++ (>=100 = ++)	+++	
29: peptide found in PLOD2 (gene looked up) (YYTKGFALLNF; listed as Homo sapiens) [compound 29]			Gene Expression (expression score of source gene) [3]: +; cell lines, normal tissues and cancer tissues where the peptide has been detected ([4]; FIG. 1F legend, A*24): 30 cancer tissues (1 brain cancer, 3 kidney cancers, 2 liver cancers, 22 lung cancers, 2 stomach cancers); Other relevant organs/diseases (additional tumor types on which the peptide was found) ([4]; HLA-A*24 peptides): Kidney, Brain, Liver
TLYPHTSQV (listed as Homo sapiens) [SEQ ID No. 140]	+ (<100 = +)		
COL6A3-013 (EYQPEMLEKF; listed as Homo sapiens)	++ (>=100 = ++)	+++	
